Results reported in patent publication US20190300610A1.

Molecular target: human VISTA polypeptide (ELISA coat) (human)
Assay: ELISA, target protein coated at 1 µg/ml

Binder	binding
anti-VISTA clone 13D5-1 IgG1 (antibody, V domains shown) VH: QVQLQQSGAELVRPGTSVKISCKASGYTFTNYWLGWVKQRPGHGLEWIGDIYPGGGYTNYNEKFKGKATLTADTSSSTAYMQLSSLTSEDSAVYFCVRSGYYYGSSWYFDVWGAGTTVTVSS VL: DVLMTQTPLSLPVSLGDQASISCRSSQSIVHSSGNTYLEWYLQKPDQSPKLLIYKVSNRFSGVPDRFSGSGSGTDFTLKISRVEAEDLGVYYCFQGSHVPPTFGGGTKLEIKR	binds
anti-VISTA clone 13D5-13 IgG1 (antibody, V domains shown) VH: QVQLQQSGAELVRPGTSVKISCKASGYTFTNYWLGWVKQRPGHGLEWIGDIYPGGGYTNYNEKFKGKATLTADISSSTAYMQLSSLTSEDSADYFCVRGGYYYGSSWYFDVWGAGTTVTVSS VL: DVLMTQTPLSLPVSLGDQASISCRSSQSTVHSIGNTYLEWYLQKPGQSPKLLIYKVSNRFSGVPDRFSGSESGTDFTLKISRVEAEDLGVYYCFQGSHVPPTFGGGTKLEIKR	binds

No constants are given. Whether binding was seen depends on the method and setting. Binding calls can cover weak binding; strength is not graded here.
